Laboratory results taken from PMC4671723.

T1: ALP1-GFP (ANTAGONIST OF LIKE HETEROCHROMATIN PROTEIN1 fused in frame to GFP) (Arabidopsis), Q94K49
T1 chain: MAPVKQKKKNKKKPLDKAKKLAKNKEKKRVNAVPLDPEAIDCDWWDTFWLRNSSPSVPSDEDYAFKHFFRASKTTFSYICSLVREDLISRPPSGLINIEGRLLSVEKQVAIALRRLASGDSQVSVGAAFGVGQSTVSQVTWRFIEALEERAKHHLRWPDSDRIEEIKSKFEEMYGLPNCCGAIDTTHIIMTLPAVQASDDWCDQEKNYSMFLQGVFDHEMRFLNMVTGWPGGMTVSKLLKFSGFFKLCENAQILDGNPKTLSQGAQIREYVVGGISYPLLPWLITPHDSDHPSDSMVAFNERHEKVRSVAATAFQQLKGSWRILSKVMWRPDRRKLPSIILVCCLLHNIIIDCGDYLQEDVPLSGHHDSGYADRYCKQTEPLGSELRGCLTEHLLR

T2: GFP-CLF (CURLY LEAF fused to GFP) (Arabidopsis), P93831
T2 chain: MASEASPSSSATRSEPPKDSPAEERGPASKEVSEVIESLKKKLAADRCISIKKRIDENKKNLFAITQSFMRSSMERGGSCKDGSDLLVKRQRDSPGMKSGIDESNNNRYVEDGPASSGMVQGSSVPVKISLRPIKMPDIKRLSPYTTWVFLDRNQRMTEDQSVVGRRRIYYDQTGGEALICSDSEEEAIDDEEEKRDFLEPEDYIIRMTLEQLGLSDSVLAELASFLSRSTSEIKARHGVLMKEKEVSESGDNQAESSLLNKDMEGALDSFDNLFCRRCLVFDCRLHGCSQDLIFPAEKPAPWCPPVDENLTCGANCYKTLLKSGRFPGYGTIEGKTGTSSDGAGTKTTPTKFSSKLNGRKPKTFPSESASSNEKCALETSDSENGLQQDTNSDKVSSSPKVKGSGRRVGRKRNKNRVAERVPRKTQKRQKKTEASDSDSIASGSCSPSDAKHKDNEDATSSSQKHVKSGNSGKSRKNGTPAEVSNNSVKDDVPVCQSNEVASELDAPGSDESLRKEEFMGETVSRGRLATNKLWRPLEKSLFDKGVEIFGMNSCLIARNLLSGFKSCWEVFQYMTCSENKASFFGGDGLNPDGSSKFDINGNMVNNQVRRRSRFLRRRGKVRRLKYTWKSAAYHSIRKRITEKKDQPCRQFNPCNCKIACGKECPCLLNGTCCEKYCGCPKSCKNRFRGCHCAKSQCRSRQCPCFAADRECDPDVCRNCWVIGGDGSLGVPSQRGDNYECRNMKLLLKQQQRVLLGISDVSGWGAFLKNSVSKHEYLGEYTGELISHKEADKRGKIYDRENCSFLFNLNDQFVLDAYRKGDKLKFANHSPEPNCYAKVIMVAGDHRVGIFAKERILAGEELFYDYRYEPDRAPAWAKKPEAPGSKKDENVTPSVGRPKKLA


Assays:
[1] = molecular target: T1, ALP1-GFP (ANTAGONIST OF LIKE …); assay: affinity purification with mass spectrometry; GFP-tagged bait immunoprecipitated from extracts of transgenic Arabidopsis plants (pALP1::ALP1-GFP, 35S::ALP1-GFP, 35S::GFP-CLF, 35S::GFP control); co-purifying proteins identified by mass spectrometry (IP-MS); three independent replicates; settings: remark: other sources report otherwise
[2] = molecular target: T2, GFP-CLF (CURLY LEAF fused to GFP) …; assay: as above; settings: remark: other sources report otherwise

Row | Binder | binding [1] | binding [2]
1 | SWINGER (SWN), Q9ZSM8 1-856 (protein) MVTDDSNSSGRIKSHVDDDDDGEEEEDRLEGLENRLSELKRKIQGERVRSIKEKFEANRKKVDAHVSPFSSAASSRATAEDNGNSNMLSSRMRMPLCKLNGFSHGVGDRDYVPTKDVISASVKLPIAERIPPYTTWIFLDRNQRMAEDQSVVGRRQIYYEQHGGETLICSDSEEEPEPEEEKREFSEGEDSIIWLIGQEYGMGEEVQDALCQLLSVDASDILERYNELKLKDKQNTEEFSNSGFKLGISLEKGLGAALDSFDNLFCRRCLVFDCRLHGCSQPLISASEKQPYWSDYEGDRKPCSKHCYLQLKAVREVPETCSNFASKAEEKASEEECSKAVSSDVPHAAASGVSLQVEKTDIGIKNVDSSSGVEQEHGIRGKREVPILKDSNDLPNLSNKKQKTAASDTKMSFVNSVPSLDQALDSTKGDQGGTTDNKVNRDSEADAKEVGEPIPDNSVHDGGSSICQPHHGSGNGAIIIAEMSETSRPSTEWNPIEKDLYLKGVEIFGRNSCLIARNLLSGLKTCLDVSNYMRENEVSVFRRSSTPNLLLDDGRTDPGNDNDEVPPRTRLFRRKGKTRKLKYSTKSAGHPSVWKRIAGGKNQSCKQYTPCGCLSMCGKDCPCLTNETCCEKYCGCSKSCKNRFRGCHCAKSQCRSRQCPCFAAGRECDPDVCRNCWVSCGDGSLGEAPRRGEGQCGNMRLLLRQQQRILLGKSDVAGWGAFLKNSVSKNEYLGEYTGELISHHEADKRGKIYDRANSSFLFDLNDQYVLDAQRKGDKLKFANHSAKPNCYAKVMFVAGDHRVGIFANERIEASEELFYDYRYGPDQAPVWARKPEGSKKDDSAITHRRARKHQSH | binds | no binding
2 | ANTAGONIST OF LIKE HETEROCHROMATIN PROTEIN1 (ALP1), Q94K49 1-396 (protein) MAPVKQKKKNKKKPLDKAKKLAKNKEKKRVNAVPLDPEAIDCDWWDTFWLRNSSPSVPSDEDYAFKHFFRASKTTFSYICSLVREDLISRPPSGLINIEGRLLSVEKQVAIALRRLASGDSQVSVGAAFGVGQSTVSQVTWRFIEALEERAKHHLRWPDSDRIEEIKSKFEEMYGLPNCCGAIDTTHIIMTLPAVQASDDWCDQEKNYSMFLQGVFDHEMRFLNMVTGWPGGMTVSKLLKFSGFFKLCENAQILDGNPKTLSQGAQIREYVVGGISYPLLPWLITPHDSDHPSDSMVAFNERHEKVRSVAATAFQQLKGSWRILSKVMWRPDRRKLPSIILVCCLLHNIIIDCGDYLQEDVPLSGHHDSGYADRYCKQTEPLGSELRGCLTEHLLR | – | binds

These are yes or no findings as the source states them, for the method shown. Binding seen in cells or lysates may run through a third protein. These calls come from enrichment with a bait or labelling near it, and not all partners need be listed. For part of these data: A no says only that the protein was not detected with the bait. Tags and fused reporters may be left off the sequences shown.
